Measurements from article PMC5458259.
These are yes or no findings as the source states them, for the method shown. In cells and extracts the contact can be indirect. Some binding calls cover weakened binding; strength is not graded here.

Protein sequences, listed by entry. Tags and fused reporters are not part of them.
UniProt P49789: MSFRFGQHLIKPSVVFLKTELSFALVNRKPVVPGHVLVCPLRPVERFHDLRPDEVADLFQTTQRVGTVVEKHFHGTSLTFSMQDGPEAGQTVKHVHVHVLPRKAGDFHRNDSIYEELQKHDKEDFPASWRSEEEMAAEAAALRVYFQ

How the values were obtained:
[1] = molecular target: T1, 14-3-3τ protein (human (endogenous in H460)) (UniProt P27348); experiment: co-IP; lysate (500 μg) of H460 cells transduced with Ad-Fhit, precleared with protein A-agarose; 3 μg anti-FLAG or anti-14-3-3τ antibody at 4°C overnight, protein A-agarose beads, five washes in lysis buffer, immunoblotting; both directions
T1 sequence: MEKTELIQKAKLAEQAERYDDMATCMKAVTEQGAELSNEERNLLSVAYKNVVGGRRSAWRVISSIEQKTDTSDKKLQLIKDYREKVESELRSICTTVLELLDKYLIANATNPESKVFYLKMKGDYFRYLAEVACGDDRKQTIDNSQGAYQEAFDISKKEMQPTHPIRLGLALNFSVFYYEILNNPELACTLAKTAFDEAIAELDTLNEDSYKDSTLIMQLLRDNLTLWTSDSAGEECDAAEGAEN

[2] = molecular target: FLAG-tagged Fhit protein (fragile histidine triad) (human) (UniProt P49789); experiment: as above

## FLAG-tagged Fhit protein (fragile histidine triad) (from UniProt P49789 1-147)
[1]
  binding: binds

B1: 14-3-3τ protein (protein, UniProt P27348 1-245)
chain: T1 sequence
[2]
  binding: binds
